Reference: article PMC4618059
No constants are given. Whether binding was seen depends on the method and setting. Binding seen in cells or lysates may run through a third protein. A yes stands for co-enrichment or nearness to the bait. Other partners may have been found.

B1: SNTA1 (human) (protein, UniProt Q13424 1-505)
chain: MASGRRAPRTGLLELRAGAGSGAGGERWQRVLLSLAEDVLTVSPADGDPGPEPGAPREQEPAQLNGAAEPGAGPPQLPEALLLQRRRVTVRKADAGGLGISIKGGRENKMPILISKIFKGLAADQTEALFVGDAILSVNGEDLSSATHDEAVQVLKKTGKEVVLEVKYMKDVSPYFKNSTGGTSVGWDSPPASPLQRQPSSPGPTPRNFSEAKHMSLKMAYVSKRCTPNDPEPRYLEICSADGQDTLFLRAKDEASARSWATAIQAQVNTLTPRVKDELQALLAATSTAGSQDIKQIGWLTEQLPSGGTAPTLALLTEKELLLYLSLPETREALSRPARTAPLIATRLVHSGPSKGSVPYDAELSFALRTGTRHGVDTHLFSVESPQELAAWTRQLVDGCHRAAEGVQEVSTACTWNGRPCSLSVHIDKGFTLWAAEPGAARAVLLRQPFEKLQMSSDDGASLLFLDFGGAEGEIQLDLHSCPKTIVFIIHSFLSAKVTRLGLLA
B2: NNTM (protein, UniProt Q13423 44-1086)
chain: CKAPVKPGIPYKQLTVGVPKEIFQNEKRVALSPAGVQNLVKQGFNVVVESGAGEASKFSDDHYRVAGAQIQGAKEVLASDLVVKVRAPMVNPTLGVHEADLLKTSGTLISFIYPAQNPELLNKLSQRKTTVLAMDQVPRVTIAQGYDALSSMANIAGYKAVVLAANHFGRFFTGQITAAGKVPPAKILIVGGGVAGLASAGAAKSMGAIVRGFDTRAAALEQFKSLGAEPLEVDLKESGEGQGGYAKEMSKEFIEAEMKLFAQQCKEVDILISTALIPGKKAPVLFNKEMIESMKEGSVVVDLAAEAGGNFETTKPGELYIHKGITHIGYTDLPSRMATQASTLYSNNITKLLKAISPDKDNFYFDVKDDFDFGTMGHVIRGTVVMKDGKVIFPAPTPKNIPQGAPVKQKTVAELEAEKAATITPFRKTMSTASAYTAGLTGILGLGIAAPNLAFSQMVTTFGLAGIVGYHTVWGVTPALHSPLMSVTNAISGLTAVGGLALMGGHLYPSTTSQGLAALAAFISSVNIAGGFLVTQRMLDMFKRPTDPPEYNYLYLLPAGTFVGGYLAALYSGYNIEQIMYLGSGLCCVGALAGLSTQGTARLGNALGMIGVAGGLAATLGVLKPGPELLAQMSGAMALGGTIGLTIAKRIQISDLPQLVAAFHSLVGLAAVLTCIAEYIIEYPHFATDAAANLTKIVAYLGTYIGGVTFSGSLIAYGKLQGLLKSAPLLLPGRHLLNAGLLAASVGGIIPFMVDPSFTTGITCLGSVSALSAVMGVTLTAAIGGADMPVVITVLNSYSGWALCAEGFLLNNNLLTIVGALIGSSGAILSYIMCVAMNRSLANVILGGYGTTSTAGGKPMEISGTHTEINLDNAIDMIREANSIIITPGYGLCAAKAQYPIADLVKMLTEQGKKVRFGIHPVAGRMPGQLNVLLAEAGVPYDIVLEMDEINHDFPDTDLVLVIGANDTVNSAAQEDPNSIIAGMPVLEVWKSKQVIVMKRSLGVGYAAVDNPIFYKPNTAMLLGDAKKTCDALQAKVRESYQK
B3: PRDX1 (protein, UniProt Q06830 1-199)
chain: MSSGNAKIGHPAPNFKATAVMPDGQFKDISLSDYKGKYVVFFFYPLDFTFVCPTEIIAFSDRAEEFKKLNCQVIGASVDSHFCHLAWVNTPKKQGGLGPMNIPLVSDPKRTIAQDYGVLKADEGISFRGLFIIDDKGILRQITVNDLPVGRSVDETLRLVQAFQFTDKHGEVCPAGWKPGSDTIKPDVQKSKEYFSKQK

Experiments:
[1] = biological target: T1, MAS C-terminal tail (Ct) peptide, residues 301 to 325 of human MAS receptor, N-terminal biotin, C316S (human); experiment: affinity purification with mass spectrometry; biotinylated MAS Ct peptide immobilised on NeutrAvidin agarose resin; HEK293 cell lysate (~4 mg), overnight at 4°C; washes with D-PBS; elution with 2% SDS; LC-MS of whole gel lanes; resin alone as control; only the target purified
T1 sequence (peptide, biotin on the N-terminus): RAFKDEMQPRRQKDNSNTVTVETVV

[2] = biological target: T1, MAS C-terminal tail (Ct) peptide, residues 301 to 325 of human MAS receptor, N-terminal biotin, C316S (human); experiment: affinity purification with mass spectrometry; biotinylated MAS Ct peptide immobilised on NeutrAvidin agarose resin; human cardiac tissue lysate (~600 μg), overnight at 4°C; washes with D-PBS; elution with 2% SDS; LC-MS of whole gel lanes; resin alone as control; only the target purified

Binder	binding [1]	binding [2]
B1	binds	binds
B2	–	binds
B3	–	binds
